Nine compounds from PubChem BioAssay AID258 (DTP/NCI, 2004) can be followed below.

The list is a part of this screen's results and no random one: it gathers tests that were run many times, whatever their T/C, doses with no T/C, and many T/C values between a quarter and a half above the control. Other doses and runs of a compound stand elsewhere. T/C is the treated group as % of the vehicle group. Some doses have a count of surviving animals in place of a T/C: the source files T/C as zero there, which appears to mark a toxic dose or a test without result, not a measured value. Some survivor counts are full or nearly so, which does not show that the dose was tolerated: survival well below the control is almost never listed, so the zero probably covers shortened survival too. Counts of survivors are from the toxicity check (mostly the fifth day) where no day follows; animals may have died later. Schedules are NCI's codes, read here as Q, the interval in days (D) or hours (H), X, the number of doses. Some schedules carry Z or #; the key to these is not given. Some entries were tested several times; the values are given in rising order. Where survival is the endpoint, the PubChem record calls one and a half times the control and up active, and a quarter to a half above the control has no call in these data; cut-offs in other NCI protocols can differ. Some T/C values carry the count of animals alive at the toxicity check (mostly the fifth day); where none is given, no animal had died by that day.

For this experiment, the system named is CD2F1 mice, L1210 leukemia sc, survival T/C. In words: NCI In Vivo Anticancer Drug Screen. Data for tumor model L1210 Leukemia (subcutaneous) in CD2F1 (CDF1) mice. As to conditions: T/C endpoint: median survival time, higher T/C = longer survival. An outline of the steps: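 Transplantable tumor-bearing mice were treated with compound; survival or tumor size measured and expressed as treated-group value (T) divided by vehicle-treated control value (C).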

Turning to `CS(=O)(=O)OCCCl`, the survivor count reads like this: (dose: 14.0 mg/kg/injection, schedule: Q01DX Z (sc), vehicle: methylcellulose (MC)) 0 of 10; (dose: 23.0 mg/kg/injection, schedule: Q01DX Z (sc), vehicle: methylcellulose (MC)) 1 of 10; (dose: 39.0 mg/kg/injection, schedule: Q01DX Z (sc), vehicle: methylcellulose (MC)) 2 of 10; (dose: 65.0 mg/kg/injection, schedule: Q01DX Z (sc), vehicle: methylcellulose (MC)) 0 of 10; (dose: 108.0 mg/kg/injection, schedule: Q01DX Z (sc), vehicle: methylcellulose (MC)) 0 of 10; (dose: 180.0 mg/kg/injection, schedule: Q01DX Z (sc), vehicle: methylcellulose (MC)) 0 of 10. In addition, the survivor count is on record as 0 of 10 (dose: 300.0 mg/kg/injection, schedule: Q01DX Z (sc), vehicle: methylcellulose (MC)) and 0 of 10 (dose: 500.0 mg/kg/injection, schedule: Q01DX Z (sc), vehicle: methylcellulose (MC)).

Take `CN(Cc1cnc2nc(N)nc(N)c2n1)c1c(Cl)cc(C(=O)NC(CCC(=O)O)C(=O)O)cc1Cl` (centres undefined): the T/C is, setting by setting: (dose: 12.5 mg/kg/injection, schedule: Q01DX009 (ip), vehicle: saline with Tween-80) 127 % of control; (dose: 16.2 mg/kg/injection, schedule: Q01DX Z (oral), vehicle: other) 145 % of control; (dose: 16.2 mg/kg/injection, schedule: Q#A X Z (oral), vehicle: other) 136 % of control; (dose: 25.0 mg/kg/injection, schedule: Q01DX009 (ip), vehicle: saline with Tween-80) 131 % of control; (dose: 27.0 mg/kg/injection, schedule: Q01DX Z (oral), vehicle: other) 131 % of control; (dose: 27.0 mg/kg/injection, schedule: Q#A X Z (oral), vehicle: other) 140 % of control. In addition, the T/C was 127 % of control (dose: 45.0 mg/kg/injection, schedule: Q01DX Z (oral), vehicle: other); 127 % of control (dose: 45.0 mg/kg/injection, schedule: Q#A X Z (oral), vehicle: other); 145 % of control (dose: 45.0 mg/kg/injection, schedule: Q#A X Z (sc), vehicle: other); 144 % of control (dose: 50.0 mg/kg/injection, schedule: Q01DX009 (ip), vehicle: saline with Tween-80); 145 % of control (dose: 62.5 mg/kg/injection, schedule: Q#A X Z (oral), vehicle: other); 130 % of control (dose: 104.0 mg/kg/injection, schedule: Q#A X Z (oral), vehicle: other). Further, the T/C (dose: 104.0 mg/kg/injection, schedule: Q#A X Z (sc), vehicle: other) is 130 % of control; the T/C (dose: 125.0 mg/kg/injection, schedule: Q01DX Z (oral), vehicle: other) was 127 % of control; the T/C (dose: 125.0 mg/kg/injection, schedule: Q01DX Z (sc), vehicle: other) is 140 and 145 % of control; the T/C (dose: 208.0 mg/kg/injection, schedule: Q01DX Z (sc), vehicle: other) is 135 % of control [9 of 10 alive]; the T/C (dose: 360.0 mg/kg/injection, schedule: Q01DX Z (sc), vehicle: other) is 144 % of control; the T/C (dose: 600.0 mg/kg/injection, schedule: Q01DX Z (oral), vehicle: other) is 144 % of control. Moreover, the T/C runs as follows: (dose: 1000.0 mg/kg/injection, schedule: Q01DX Z (oral), vehicle: other) 144 % of control [9 of 10 alive]; (dose: 1602.0 mg/kg/injection, schedule: Q03DX Z (oral), vehicle: other) 136 % of control. For the same compound, the survivor count is given as 0 of 10 (dose: 45.0 mg/kg/injection, schedule: Q01DX Z (sc), vehicle: other); 5 of 6 (dose: 100.0 mg/kg/injection, schedule: Q01DX009 (ip), vehicle: saline with Tween-80); 5 of 6 (dose: 200.0 mg/kg/injection, schedule: Q01DX009 (ip), vehicle: saline with Tween-80).

`ONc1ncnc2nc[nH]c12`: the T/C (dose: 200.0 mg/kg/injection, schedule: Q01DX Z (sc), vehicle: steroid suspending solution) is 143 % of control.

As for `Nc1nc2c(c(=O)[nH]1)NC(CCNc1ccc(C(=O)NC(CCC(=O)O)C(=O)O)cc1)CN2` (centres undefined), the T/C by setting is: (dose: 100.0 mg/kg/injection, schedule: Q03HX Z (ip), vehicle: other) 130 % of control; (dose: 200.0 mg/kg/injection, schedule: Q01DX Z (ip), vehicle: other, evaluated on day 30) 140 % of control; (dose: 200.0 mg/kg/injection, schedule: Q01DX Z (ip), vehicle: other, evaluated on day 50) 130 % of control; (dose: 200.0 mg/kg/injection, schedule: Q03HX Z (ip), vehicle: other) 130 % of control [7 of 8 alive]; (dose: 400.0 mg/kg/injection, schedule: Q04DX Z (ip), vehicle: other) 125 % of control; (dose: 800.0 mg/kg/injection, schedule: Q04DX Z (ip), vehicle: other) 130 % of control [6 of 8 alive]. In addition, the survivor count is on record as 4 of 8 (dose: 800.0 mg/kg/injection, schedule: Q01DX Z (ip), vehicle: other) and 10 of 10 (dose: 1600.0 mg/kg/injection, schedule: Q01DX Z (ip), vehicle: other).

As for `O=c1cnn(C2OC(CO)C(O)C2O)c(=O)[nH]1` (centres undefined), the T/C reads like this: (dose: 75.0 mg/kg/injection, schedule: Q01DX009 (sc), vehicle: saline) 130 % of control [9 of 10 alive]; (dose: 150.0 mg/kg/injection, schedule: Q01DX009 (ip), vehicle: saline) 131 % of control; (dose: 150.0 mg/kg/injection, schedule: Q01DX009 (sc), vehicle: saline) 133 % of control; (dose: 300.0 mg/kg/injection, schedule: Q01DX009 (ip), vehicle: saline) 131 % of control; (dose: 300.0 mg/kg/injection, schedule: Q01DX009 (sc), vehicle: saline) 132 % of control; (dose: 600.0 mg/kg/injection, schedule: Q01DX009 (ip), vehicle: saline) 140 % of control. Also, under “dose: 600.0 mg/kg/injection, schedule: Q01DX009 (sc), vehicle: saline”, the T/C is 125 % of control.

For the compound `CN(C)c1nc(N(C)C)nc(N(C)C)n1`, the survivor count was 10 of 10 (dose: 300.0 mg/kg/injection, schedule: Q01DX009 (ip), vehicle: saline with Tween-80) and 6 of 10 (dose: 360.0 mg/kg/injection, schedule: Q01DX009 (ip), vehicle: saline with Tween-80).

With `NCCCNCCCCNC(=O)C(O)NC(=O)CC(O)CCCCN=C(N)N` (centres undefined), the T/C (dose: 3.12 mg/kg/injection, schedule: Q01DX009 (ip), vehicle: saline) is 145 % of control. Further, the survivor count (dose: 100.0 mg/kg/injection, schedule: Q01DX009 (ip), vehicle: saline) is on record as 4 of 8.

With `O=C(Nc1ccccc1)c1c(O)[nH]c(=S)[nH]c1=O`, the T/C was 137 % of control (dose: 18.8 mg/kg/injection, schedule: Q03HX008 (ip), vehicle: other); 130 and 131 % of control (dose: 30.0 mg/kg/injection, schedule: Q01DX005 (ip), vehicle: other); 137 and 144 % of control (dose: 67.0 mg/kg/injection, schedule: Q01DX001 (ip), vehicle: other). Moreover, the survivor count (dose: 67.5 mg/kg/injection, schedule: Q01DX005 (ip), vehicle: other) is 2 of 10 on day 7 and 3 of 9; the survivor count (dose: 100.0 mg/kg/injection, schedule: Q01DX001 (ip), vehicle: other) is 5 of 10 and 6 of 10 on day 7; the survivor count (dose: 101.1 mg/kg/injection, schedule: Q01DX005 (ip), vehicle: other) is 0 of 10 and 1 of 10 on day 7.

For the compound `OCC1OC(n2cnc3c(=S)nc[nH]c32)C(O)C1O` (centres undefined), the survivor count (dose: 46.8 mg/kg/injection, schedule: Q01DX Z (sc), vehicle: other) is on record as 6 of 10 and the survivor count (dose: 78.0 mg/kg/injection, schedule: Q01DX Z (sc), vehicle: other) is recorded as 6 of 10.
